Source: PubChem BioAssay AID743454 (Peter MacCallum Cancer Centre, 2014)

- Aim: 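Genes whose loss kills vorinostat-resistant colon cancer cells under vorinostat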 (primary screen)
- Cells: human HCT116-VR colon cancer cells, selected for vorinostat resistance
- Reagent: siRNA pool against human genes, 40 nM siRNA pool
- Time to read-out: vorinostat for 24 h, read-out about 72 h after transfection
- Challenge: vorinostat at 2.5 µM final
- Measured: 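Two measures, CellTiter-Fluor viability and luminescent caspase 3/7 activity, each as fold change against same-plate mock wells, mean of duplicates, then screen-wide robust z-score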
- Reading the numbers: viability robust z-score: higher = more viable cells than screen typical; caspase robust z-score: higher = more caspase 3/7 activity than screen typical
- Active means: 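Hits are knock-downs in viability class RV1/RV2 or caspase class CA1/CA2, excluding ones that killed cells in the no-drug cell-count arm; hits then retested with single siRNAs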
The whole screen tested about 18,000 reagents; below is an unselected part. 450 of all reagents (2.5%) count as active. 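Single biological run; no consistent viability z cut-off exists, so the class columns, not z-scores, define the calls.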 Unmarked entries are inactive.

Target gene,viability hit class,caspase hit class,viability robust z-score,caspase robust z-score
GDNF (glial cell derived neurotrophic factor),no change,no change,0.94,-0.56
CNOT2 (CCR4-NOT transcription complex subunit 2),no change,no change,-0.78,2.42
LDLRAD3 (low density lipoprotein receptor class A domain containing 3),no change,no change,-0.04,-0.48
SPDYA (speedy/RINGO cell cycle regulator family member A),no change,no change,0.01,-0.07
NOL8 (nucleolar protein 8),no change,no change,-1.06,-0.91
DEPDC1B (DEP domain containing 1B),no change,no change,0.28,-0.59
CELSR1 (cadherin EGF LAG seven-pass G-type receptor 1),no change,no change,0.06,1.02
ABCA10 (ATP binding cassette subfamily A member 10),no change,no change,0.06,-0.46
FXYD1 (FXYD domain containing ion transport regulator 1),no change,no change,-0.2,1.13
TBCC (tubulin folding cofactor C),no change,no change,1.06,0.24
ETV6 (ETS variant transcription factor 6),no change,no change,0.8,0.01
ARHGEF10 (Rho guanine nucleotide exchange factor 10),no change,no change,1.28,0.04
RAPGEF4 (Rap guanine nucleotide exchange factor 4),no change,no change,1.42,0.03
TAT (tyrosine aminotransferase),no change,no change,-0.57,-0.27
GARIN6 (golgi associated RAB2 interactor family member 6),no change,no change,1.02,-1.02
CYB561 (cytochrome b561),no change,no change,-0.97,-1.29
OR4A47 (olfactory receptor family 4 subfamily A member 47),no change,no change,0.26,1.68
FCN1 (ficolin 1),no change,no change,1.08,-0.7
GPATCH2 (G-patch domain containing 2),no change,no change,0.22,-0.36
LMF1 (lipase maturation factor 1),no change,no change,-1.2,-0.27
ZNF8 (zinc finger protein 8),no change,no change,0.07,1.71
TECPR1 (tectonin beta-propeller repeat containing 1),no change,no change,-0.64,0.24
CSNK2A1 (casein kinase 2 alpha 1),no change,no change,2.12,-0.28
TSPAN4 (tetraspanin 4),no change,no change,-0.97,2.8
IP6K1 (inositol hexakisphosphate kinase 1),no change,no change,0.7,0.1
APOC4 (apolipoprotein C4),no change,no change,-0.5,4.32
TRIM47 (tripartite motif containing 47),no change,no change,0.16,-0.45
HDGF (heparin binding growth factor),no change,no change,-0.26,1.62
"RAB3A (RAB3A, member RAS oncogene family)",no change,no change,0.22,-0.26
TOGARAM2 (TOG array regulator of axonemal microtubules 2),no change,no change,-0.66,0.11
LARP4B (La ribonucleoprotein 4B),no change,no change,-0.08,0.22
PTOV1 (PTOV1 extended AT-hook containing adaptor protein),no change,no change,-1.07,1.77
TBC1D28 (TBC1 domain family member 28),no change,no change,-0.66,0.22
COPS6 (COP9 signalosome subunit 6),no change,no change,-0.65,4.09
TBL3 (transducin beta like 3),no change,no change,-1.05,-0.33
FAAP24 (FA core complex associated protein 24),no change,no change,0.66,0.21
"RAB8B (RAB8B, member RAS oncogene family)",no change,no change,0.12,0.85
LRSAM1 (leucine rich repeat and sterile alpha motif containing 1),no change,no change,0.6,2.79
STPG1 (sperm tail PG-rich repeat containing 1),no change,no change,-0.53,1.94
PCGF1 (polycomb group ring finger 1),no change,no change,-0.37,1.46
NKAIN2 (sodium/potassium transporting ATPase interacting 2),no change,no change,0.36,-1
CALR3 (calreticulin 3),no change,no change,-1.12,4.82
ESM1 (endothelial cell specific molecule 1),no change,no change,0.6,-0.72
IL33 (interleukin 33),no change,no change,-0.26,-0.49
NUDT2 (nudix hydrolase 2),no change,no change,-0.38,1.63
OCEL1 (occludin/ELL domain containing 1),no change,no change,-0.24,1.88
SIK3 (SIK family kinase 3),no change,no change,0.64,0.34
GDI1 (GDP dissociation inhibitor 1),no change,no change,0.28,0.63
RPP30 (ribonuclease P/MRP subunit p30),no change,no change,-1.08,3.93
CELF5 (CUGBP Elav-like family member 5),no change,no change,-0.42,2.38
VSIG1 (V-set and immunoglobulin domain containing 1),no change,no change,0.85,0.05
SNTB1 (syntrophin beta 1),no change,no change,-0.48,-0.84
HOXB1 (homeobox B1),no change,no change,0.7,2.22
TPPP3 (tubulin polymerization promoting protein family member 3),no change,no change,-0.88,3.4
DDX1 (DEAD-box helicase 1),no change,no change,0.02,0.56
FRMD3 (FERM domain containing 3),no change,no change,0.4,-0.36
KRTAP19-5 (keratin associated protein 19-5),no change,no change,0.7,2.01

A run of entries taken from the entries so far, for reference:
Target gene,viability hit class,caspase hit class,viability robust z-score,caspase robust z-score
ABCA10 (ATP binding cassette subfamily A member 10),no change,no change,0.06,-0.46
FXYD1 (FXYD domain containing ion transport regulator 1),no change,no change,-0.2,1.13
TBCC (tubulin folding cofactor C),no change,no change,1.06,0.24
ETV6 (ETS variant transcription factor 6),no change,no change,0.8,0.01
ARHGEF10 (Rho guanine nucleotide exchange factor 10),no change,no change,1.28,0.04
RAPGEF4 (Rap guanine nucleotide exchange factor 4),no change,no change,1.42,0.03
TAT (tyrosine aminotransferase),no change,no change,-0.57,-0.27
